Laboratory results reported in PubChem BioAssay AID493014 (National Center for Advancing Translational Sciences (NCATS), 2011).
About 170 (0.05%) of roughly 340,000 compounds were called active. The inconclusive results got no clear call from the source; some entries with a clear call stand among them for comparison. The call rests on the fitted dose curve; in most records, active means well fitted inhibition curve with a large enough effect in the signal ratio, with a control signal flat (not every such curve was filed as active); inconclusive means small, poorly fitted or top-dose-only effect, or effect the other way, or a change in a side signal; inactive means flat fitted curve, though single readings scatter; the % refers to the signal ratio. Potencies beside an inconclusive call are fits to weak or partial responses and may not hold up.

Test: qHTS Assay to Find Inhibitors of Chronic Active B-Cell Receptor Signaling;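 on activity change, negative = inhibition: plate controls were basal doxycycline-induced cells for no effect and cells given 10 µM MG132 for full effect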
Settings: ABC-DLBCL IkBa-CBG/CBR reporter, luminescence ratio (green luciferase fused to IkBa over red control in TMD8 lymphoma cells), 4 h; activity change, negative = inhibition: at 46.1 µM (top of the series) unless noted
In short: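 Compounds up to 46 uM were incubated four hours with TMD8 cells whose green CBG68 luciferase is fused to IkappaBalpha; red CBR luminescence normalised the signal, and concentration-effect curves were fitted to fusion, red and ratio data.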
Potency means the concentration at half of the fitted maximal effect.

Row | Compound | Potency | activity change, negative = inhibition
1 | Cc1cccc(C(=O)Nc2ccc3ccccc3c2)c1 | inconclusive: 17.8 µM [falling, partial curve] | 
2 | Cc1cc(C)n(-c2ccc(C(=O)Nc3cc(S(=O)(=O)N(C)C)ccc3Cl)cc2)n1 |  | inconclusive: -3.17%
3 | CC1CCCC2(C1)NC(=S)c1c(sc3c1CCCC3)N2 (stereo not drawn) |  | inactive
4 | O=C(N/N=C/c1ccncc1)c1ccc(NC(=O)c2cccc(Cl)c2)cc1 |  | inactive
5 | Cc1cccc(NS(=O)(=O)c2ccc(C(=O)NCC3(N4CCCCC4)CCCCC3)cc2)c1C |  | inconclusive: 7.03%
6 | Cc1cc(C)c2nc(/N=C(\N)NC(=O)c3ccccc3)nc(C)c2c1 | inconclusive: 0.355 µM [falling, full curve, poor fit] | 
7 | COc1cccc(-c2noc(-c3ccoc3C)n2)c1 |  | inconclusive: -7.66%
8 | CN(CC(=O)Nc1ccccc1Br)Cc1nc2ccccc2c(=O)[nH]1 |  | inconclusive: -0.499%
9 | Cc1ccc(C(=O)Nc2cccnc2Oc2ccc(Cl)cc2)cc1 |  | inconclusive: -14%
10 | O=C(NCCC1=CCCCC1)C1CCCN(c2nc3ccccc3o2)C1 (stereo not drawn) | inconclusive: 4.47 µM [falling, partial curve, poor fit] | 
11 | O=C(CN1CCN(S(=O)(=O)c2ccccc2)CC1)Nc1ccccc1C(=O)c1ccccc1 | inconclusive: 20.6 µM [rising, partial curve, poor fit] | 
12 | CCN1CCN(Cc2ccc(NC(=O)c3ccc(C)c(NC(=O)c4nccnc4N)c3)cc2C(F)(F)F)CC1 |  | inconclusive: -3.56%
13 | O=C(CN1CCC(NC(=O)Nc2ccccc2)CC1)Nc1cccc([N+](=O)[O-])c1 |  | inconclusive: -13.5%
14 | Cc1cc(=O)oc2cc(OCCSCCN3CCOCC3)ccc12 |  | inconclusive: 7.46%
15 | CC(C)(C)c1ccc(-c2nnc(SCC(=O)NC3CC3)o2)cc1 | inconclusive: 23.1 µM [falling, partial curve, poor fit] | 
16 | O=C(CCCN1C(=O)/C(=C\c2ccccc2)SC1=S)Nc1ccc(O)cc1 | inconclusive: 15.8 µM [falling, partial curve] | 
17 | CCn1c(=O)n(CC(=O)N(C)Cc2ccccc2)c(=O)c2ccccc21 | inconclusive: 18.4 µM [falling, single point] | 
18 | COc1cccc(C(=O)N/N=C(\CC(C)C)c2ccccc2)c1 | inconclusive: 18.4 µM [falling, partial curve] | 
19 | O=C(Nc1nnc(C2CCCC2)s1)C1CCC1 |  | inactive
20 | CCc1cn(S(=O)(=O)c2ccccc2OC)nc1N | inconclusive: 18.4 µM [falling, partial curve] | 
21 | CCc1nn2c(=O)cc(COc3cccc(NC(=O)c4ccco4)c3)nc2s1 | inconclusive: 7.94 µM [falling, partial curve] | 
22 | O=c1c(Cl)c(N2CCN(c3ccc(F)cc3)CC2)cnn1-c1nc2ccccc2s1 |  | inconclusive: 16.2%
23 | Cc1ccc(-n2c(C)c(C)c3c(NCCCO)ncnc32)cc1 | inconclusive: 22.4 µM [falling, single point] | 
24 | COc1ccc(F)c(CN(C)CC2CCCN(CCc3ccc(F)cc3)C2)c1 (stereo not drawn) |  | inactive
25 | CN(C)CCNC(=O)c1ccc2c(c1)N(Cc1ccc(F)cc1)CCS2 |  | inactive
26 | Cn1c(=O)c(NC2CCCCC2)c2c3c(cccc31)C(=O)c1ccccc1-2 |  | inactive

Row | Compound | Potency | activity change, negative = inhibition
27 | COc1cccc(/C=C2\SC(=S)N(CCCC(=O)NC3=NCCS3)C2=O)c1 | inconclusive: 5.01 µM [falling, partial curve] | 
28 | CCOc1cccc(NC(=O)C2CC(=O)N(C)C(=Nc3ccc(F)cc3)S2)c1 (stereo not drawn) |  | inactive
29 | O=C(CSc1nc2ccccc2[nH]1)Nc1ccc2c(c1)OCCO2 |  | inactive
30 | COc1ccc(/C=N/NC(=S)NCCc2ccccc2)cc1 | inconclusive: 20 µM [falling, single point] | 
31 | CCOc1ccc(C(=O)CC(C(=O)O)N2CCCCC2)cc1 (stereo not drawn) |  | inconclusive: -11.8%
32 | COc1ccc2c(c1OC)C(=O)N1c3ccccc3C(=O)N(c3ccccc3)C21 (stereo not drawn) |  | inconclusive: 12.9%
33 | Cc1onc(C(=O)N2CCN(c3ccccc3)CC2)c1[N+](=O)[O-] |  | inactive
34 | CC(C)C(=O)N1CCN(c2ccc(NC(=O)c3cccs3)cc2Cl)CC1 | inconclusive: 10 µM [falling, partial curve, poor fit] | 
35 | C[C@@]12C(=O)N(Cc3ccc(-c4ccccc4)cc3)CC(=O)N1[C@H](/C=C/c1ccccc1)[C@@H]1C(=O)N(c3ccccc3)C(=O)[C@@H]12 |  | inactive
36 | CCCn1nc([N+](=O)[O-])c(C(C#N)c2nc3ccccc3s2)c(Cl)c1=O (stereo not drawn) | inconclusive: 1.64 µM [falling, full curve] | 
37 | O=C(Nc1ncnc2sc3c(c12)CCCCC3)c1ccccc1 |  | inactive
38 | COc1cc(NCc2ccccc2)c2ncn(C(C)C)c2c1 |  | inconclusive: -0.348%
39 | CC(=O)Cc1cc(O)c2ccccc2c1OC(=O)c1ccc(Br)cc1 | inconclusive: 7.08 µM [falling, partial curve, poor fit] | 
40 | CCN1C(=O)CC(C(=O)Nc2ccc(F)cc2)SC1=Nc1cccc(OC)c1 (stereo not drawn) |  | inconclusive: 2.66%
41 | O=C(c1ccc(Br)s1)N(Cc1cccnc1)c1nc2ccc(F)cc2s1 |  | inactive
42 | COCCCNC(=S)N1CCCC(c2nc3cc(C)c(C)cc3[nH]2)C1 (stereo not drawn) |  | inconclusive: -23.2%
43 | O=C(CSc1nnnn1-c1ccc(O)cc1)NC1CCCCC1 | inconclusive: 11.2 µM [falling, partial curve, poor fit] | 
44 | CCCCCn1nc(C(=O)OCC(=O)c2c(N)n(C)c(=O)n(C)c2=O)c2ccccc2c1=O |  | inconclusive: 11.2%
45 | Cc1ccc(NC(=O)NCCSc2ccc(C)cc2)cc1 |  | inconclusive: 2.38%
46 | O=C1/C(=C/c2ccc([N+](=O)[O-])cc2)Oc2cc(O)ccc21 |  | inconclusive: 5.37%
47 | O=C(COC(=O)c1cc(Br)ccc1O)c1ccc(F)cc1 |  | inconclusive: 7.65%
48 | COc1cc2c(C#N)c(N3CCOCC3)nc(N)c2c(N)n1 |  | inconclusive: 2.4%
49 | COc1cc(S(=O)(=O)Nc2ccc(C)cc2)ccc1N=Cc1c(C)[nH]n(-c2ccccc2)c1=O | inconclusive: 5.8 µM [rising, partial curve, poor fit] | 
50 | O=C(Nc1ccc(Cl)c(S(=O)(=O)N2CCOCC2)c1)c1ccc(Cl)nc1 |  | inconclusive: -2.93%
51 | Cc1c(NS(=O)(=O)c2ccc(Cl)c(C(=O)OC(C)C(=O)N3CCOCC3)c2)c(=O)n(-c2ccccc2)n1C (stereo not drawn) |  | inconclusive: 5.48%
52 | Nn1c(SCC(=O)Nc2ccc3c(c2)OCO3)nnc1C1CC1 |  | inconclusive: 10.8%

Compounds listed so far that have a cyano group (two):
Row | Compound | Potency | activity change, negative = inhibition
36 | CCCn1nc([N+](=O)[O-])c(C(C#N)c2nc3ccccc3s2)c(Cl)c1=O (stereo not drawn) | inconclusive: 1.64 µM [falling, full curve] | 
48 | COc1cc2c(C#N)c(N3CCOCC3)nc(N)c2c(N)n1 |  | inconclusive: 2.4%

(continued)

Row | Compound | Potency | activity change, negative = inhibition
53 | Cc1cccc(N=C2NC(=O)/C(=C/C=C/c3ccco3)S2)c1C |  | inconclusive: 4.03%
54 | O=c1oc2ccccc2c(NC(c2ccccc2)c2ccccc2)c1[N+](=O)[O-] |  | inconclusive: -11.3%
55 | Cc1ccc(C(=O)CCC(=O)Nc2ccccc2F)cc1 | inconclusive: 17.8 µM [falling, partial curve] | 
56 | CCc1ccc(-c2nc(CS(=O)CC(=O)NCCCN3CCC(C)CC3)c(C)o2)cc1 (stereo not drawn) |  | inactive
57 | CCOC(=O)c1c(-c2ccccc2)nc2ccc(C)cn12 |  | inactive
58 | COc1cc(/C=N/NC(=S)NCCc2ccccc2)cc(OC)c1OC |  | inconclusive: -15.3%
59 | Cc1cc(C)nc(SCC(=O)Nc2ccnc3ccccc23)n1 |  | inconclusive: -6.68%
60 | O=C(Nc1ncc(Cc2ccccc2Cl)s1)C1CCCO1 (stereo not drawn) |  | inactive
61 | Cc1cc(C)c(-c2cc(C(=O)Nc3cc(C)ccc3C)[nH]n2)c(O)c1 |  | inconclusive: -25.6%
62 | CCOC(=O)N1CCN(c2c(NCc3ccc(F)cc3)c(=O)c2=O)CC1 |  | inconclusive: -16.3%
63 | O=C(CSc1nc2c([nH]c3ccccc32)c(=O)n1-c1ccccc1)N1CCOCC1 |  | inconclusive: 5.46%
64 | O=C(COc1ccc(S(=O)(=O)NC2CCCCC2)cc1)NC1CCCC1 |  | inactive
65 | COCCNC(=S)N1CCCC(CO)C1 (stereo not drawn) |  | inconclusive: -11%
66 | O=C(CCN1CCN(c2ccccc2)CC1)Nc1ccccc1 |  | inactive
67 | Cn1c(N)c(C(=O)COC(=O)Cc2cccc(C(F)(F)F)c2)c(=O)n(C)c1=O |  | inconclusive: 17.4%
68 | CS(=O)(=O)Nc1cccc(C2=NN(C(=O)c3cccc([N+](=O)[O-])c3)C(c3cccs3)C2)c1 (stereo not drawn) |  | inconclusive: -15.3%
69 | Cc1cc2nc(SCCOC(=O)Nc3ccccc3)nc(C)c2cc1C |  | inconclusive: 3.31%
70 | Cc1cccc2cc3c(N)c(C(=O)N4CCOCC4)sc3nc12 | inconclusive: 8.91 µM [falling, partial curve] | 
71 | CCCn1c(NC(=O)c2ccc(Br)cc2)nc2ccccc21 | inconclusive: 0.291 µM [rising, full curve, poor fit] | 
72 | CC1CCN(c2ccc(C(=O)NCc3cccs3)cn2)CC1 |  | inconclusive: -17.5%
73 | CC1=NN(C(=O)COc2ccc(C)c(C)c2)C(O)(c2ccc(Cl)cc2)C1 (stereo not drawn) |  | inconclusive: -7.77%
74 | CN(Cc1cc(=O)n2ccsc2n1)Cc1nc2ccccc2c(=O)[nH]1 |  | inactive
75 | CC(C)CC(OC(=O)c1ccco1)C(=O)NCC1CCCO1 (stereo not drawn) |  | inconclusive: 3.65%
76 | CCCCC1=CC2=CC(=O)C(C)(OC(=O)CC)C(=O)C2=CN1c1ccc(OC)cc1 (stereo not drawn) |  | inactive
77 | COC(=O)c1ccc2c(c1)N(Cc1nc(-c3cccc(C)c3)oc1C)C(=O)C1CCCN21 (stereo not drawn) | inconclusive: 9.2 µM [rising, partial curve] | 
78 | Cc1ccc(O)c(NC(=O)c2cc(-c3ccccc3Cl)on2)c1 | inconclusive: 8.91 µM [falling, partial curve, poor fit] | 
